This passage reports binding results from PMC13478228.

No constants are given. Whether binding was seen depends on the method and setting. Sequences can lack the tags named with a protein.

The assay deals with T1, human sirtuin 2 (SIRT2), C-terminal His tag (human), Q8IXJ6.
T1 chain: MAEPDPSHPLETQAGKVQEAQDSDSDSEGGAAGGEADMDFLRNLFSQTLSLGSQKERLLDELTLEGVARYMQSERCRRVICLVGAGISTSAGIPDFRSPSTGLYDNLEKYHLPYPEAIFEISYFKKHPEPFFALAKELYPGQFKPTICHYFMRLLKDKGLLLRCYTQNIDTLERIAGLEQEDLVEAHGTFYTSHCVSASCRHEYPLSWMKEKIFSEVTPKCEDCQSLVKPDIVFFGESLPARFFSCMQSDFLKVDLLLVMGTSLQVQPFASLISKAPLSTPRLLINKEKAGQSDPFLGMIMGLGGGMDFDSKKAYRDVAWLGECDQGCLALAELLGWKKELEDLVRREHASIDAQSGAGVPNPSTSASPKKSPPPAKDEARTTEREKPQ
Put plainly: SEC; analytical SEC of pre-mixed, separately purified SerRS and SIRT2-His, no ligand added; both purified. Conditions: remark: other sources report otherwise. (In general: SEC sorts molecules by how far they enter the pores of the column.)

B1: human sirtuin 2 (SIRT2), C-terminal His tag, Q8IXJ6 1-389 (enzyme)
chain: MAEPDPSHPLETQAGKVQEAQDSDSDSEGGAAGGEADMDFLRNLFSQTLSLGSQKERLLDELTLEGVARYMQSERCRRVICLVGAGISTSAGIPDFRSPSTGLYDNLEKYHLPYPEAIFEISYFKKHPEPFFALAKELYPGQFKPTICHYFMRLLKDKGLLLRCYTQNIDTLERIAGLEQEDLVEAHGTFYTSHCVSASCRHEYPLSWMKEKIFSEVTPKCEDCQSLVKPDIVFFGESLPARFFSCMQSDFLKVDLLLVMGTSLQVQPFASLISKAPLSTPRLLINKEKAGQSDPFLGMIMGLGGGMDFDSKKAYRDVAWLGECDQGCLALAELLGWKKELEDLVRREHASIDAQSGAGVPNPSTSASPKKSPPPAKDEARTTEREKPQ
Turning to B1, the binding entry is listed as “no binding”.
